According to PMC9729598 (Bioorganic Chemistry, 2022):

Assay: in vitro
Settings: mouse, microsomes, pH 7.4

Compound: CCCNCC(O)COc1ccccc1C(=O)CCc1ccccc1 (stereo not shown) [propafenone]
- microsomal CLint: 202 µL/min/mg
